Conditions in all cases: 10 mM Tris-Cl pH 7.5, 50 mM NaCl, 1 mM DTT, 0.25 mg/ml BSA, 2 mM MgCl2, 0.025% Nonidet P-40, 5% glycerol; 28 nM nucleosome library; 10 min on ice then 30 min …; high values mean tight binding; double strand, one strand shown
One test relates to KLF4 + histone octamer. The experiment in a line: EMSA with sequencing. For orientation: In EMSA bound probe runs differently from free probe, usually more slowly.
In test [1] the test system is c-MYC + MAX + histone octamer. The experiment in a line: EMSA with sequencing.
In another test the test system is OCT4 + histone octamer. The experiment in a line: Pioneer-seq (competitive nucleosome EMSA with sequencing).
In a further test the test system is SOX2 + histone octamer. The description is as above.

The other results are listed elsewhere or left out. For some of these results: At the low end of the ranking, values are background and their order means little.

As for “GATGGACCCTATACGCGGCTGTGAATTGTGGAGGAAGGGCCCAGGAGGGCCACATGCCCTGCCAGGGAAGCCATAGAGAGCCCTGCCCCGGGAGGTCAGTGCCTCCTTCAATGCCTGCGATCCCTCACCCTGCCCTGCTTCCCCCACCATCCGCCCCGCCTGGGCAGCCTGGGCCACTGCCCGCCAGCCACCCCCGCCTTCGGACTGTGCTGCCAGTCGGATAGTGTTCC”, the binding signal (log2 relative supershift) in the test with KLF4 + histone octamer is 2.37; in test [1], 0.614; in the test with OCT4 + histone octamer, -0.487; in the test with SOX2 + histone octamer, -0.585.

For the sequence “GATGGACCCTATACGCGGCATAGATGGAGAGGATTTCAAGTGATGTTTTCTGAAGATGGTTCTGTTGTCCCGGGAGAGCCCTTGGCGGACATGGTAGTGCCAGTCAGAGCCCTTGACGCTGTGCAGCCAGGTGGCTTATTGTCCCAGTGACTTTCCAACCAGATACTCTCAGTCAGAGTGAAGGGCTCCACTTAGAAACTCCCTTTCCCATGCCAGTCGGATAGTGTTCC”, the binding signal (log2 relative supershift) with KLF4 + histone octamer is 2.22; in test [1], 0.00407; with OCT4 + histone octamer it was -0.543; in the test with SOX2 + histone octamer it was -0.19.

Take “GATGGACCCTATACGCGGCTGCCACCCTTGGCTGTACCAAGCTCTGGGAAGGAAGGAGGGGACGTGTCCCAGGTACCCCCTCCACCCACATTGGTGAGGCTGACTCAGGCCCCAGCCACGTGTCCCAACCTGCCCTGCGCGTCCCAGAGGGGAAGGAAGATATTCCAATGCTCCCAGGAGGCTGAGGTTGGGCAGGGAGCAGGAGAGAGGTGCCAGTCGGATAGTGTTCC”: the binding signal (log2 relative supershift) in the test with KLF4 + histone octamer is 2.4; in test [1] it was 0.558; in the test with OCT4 + histone octamer, -0.0405; in the test on SOX2 + histone octamer, -0.133.

For the sequence “GATGGACCCTATACGCGGCATTTCTGTAGGACCCACCCACCTTCCACCCACATCTCCTCTCTAACCCCCGCTCCCAGTGCCTCACCTCCTGGCCTAAGCCCCGCCCATGAGCCATCCGACCCTGCCTCCCTAGGGTAACAAGGGTGGCGTGAGCGTGCGCCTGGCGGCCTTCGGGCACATGCTCTGCTTCCTGAACTGCCACTTGCCTGCTGCCAGTCGGATAGTGTTCC”, the binding signal (log2 relative supershift) with KLF4 + histone octamer was 2.43; in test [1], 1.02; in the test with OCT4 + histone octamer, -1.07; with SOX2 + histone octamer it was -0.726.

The values above are taken from paper PMC12370185.
